Source: PubChem BioAssay AID1159584 (Peter MacCallum Cancer Centre, 2016)

Assay: 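Genes that CDH1-null MCF10A cells selectively depend on to survive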 (primary screen)
Cells: human MCF10A breast epithelial cells, parental and CDH1-null
Reagents: siRNA against human genes
Detection: 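ATP luminescence (CellTiter-Glo) viability per line relative to mean mock wells over all plates, and the ratio of CDH1-null to parental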
Reading the numbers: CDH1-null / parental viability ratio: higher = CDH1-null cells survive relatively better than parental; CDH1-null viability vs mock: higher = more viable CDH1-null cells; parental viability vs mock: higher = more viable parental cells
This is a random part of about 18,000 reagents tested. Not stated in the record: the amount of reagent, the time to read-out.

| gene knocked down | CDH1-null / parental viability ratio | CDH1-null viability vs mock (fraction of mock) | parental viability vs mock (fraction of mock) |
| --- | --- | --- | --- |
| SLC2A8 | 1.01 | 0.79 | 0.78 |
| PSPHP1 | 1.3 | 0.96 | 0.74 |
| ZNF497 | 0.91 | 0.6 | 0.66 |
| ABCD1 | 1.06 | 0.9 | 0.85 |
| KLHL15 | 1.26 | 1.06 | 0.84 |
| UQCRH | 0.98 | 0.92 | 0.94 |
| KCTD9 | 0.87 | 0.68 | 0.78 |
| OR5M8 | 0.93 | 0.92 | 0.99 |
| TRMT1 | 1.16 | 1 | 0.86 |
| ZBTB41 | 0.95 | 1.06 | 1.12 |
| DISC1 | 1.26 | 0.58 | 0.46 |
| EPG5 | 1.29 | 0.67 | 0.52 |
| EIF2S3 | 0.8 | 0.48 | 0.6 |
| AOX1 | 0.69 | 0.72 | 1.04 |
| ATL3 | 0.65 | 0.44 | 0.68 |
| YWHAQ | 1.15 | 0.84 | 0.73 |
| DUSP14 | 1.39 | 1.06 | 0.76 |
| TIMM8A | 1.04 | 0.86 | 0.83 |
| PARP16 | 0.95 | 0.36 | 0.38 |
| PSME3 | 1.21 | 1.02 | 0.84 |
| DIPK2B | 0.82 | 0.74 | 0.9 |
| SESN3 | 0.98 | 0.94 | 0.96 |
| CARINH | 1.02 | 1.14 | 1.12 |
| ZNF552 | 1.38 | 0.58 | 0.42 |
| GLYCTK | 1.05 | 0.81 | 0.77 |
| TMEM132A | 1.11 | 0.63 | 0.57 |
| CHMP5 | 0.89 | 0.66 | 0.74 |
| IL9R | 0.9 | 0.52 | 0.58 |
| SV2C | 1.14 | 0.82 | 0.72 |
| PLEKHO2 | 0.93 | 0.69 | 0.74 |
| APEX2 | 0.9 | 0.77 | 0.86 |
| HPGDS | 1.15 | 0.97 | 0.84 |
| DGCR6 | 1.38 | 0.88 | 0.64 |
| INS | 1.01 | 0.91 | 0.9 |
| RNF185 | 1 | 1 | 1 |
| ATP5IF1 | 0.97 | 0.66 | 0.68 |
| RASSF4 | 1.53 | 0.58 | 0.38 |
| TIPE1 | 1.13 | 0.68 | 0.6 |

A stretch taken from the entries so far, for reference:
| gene knocked down | CDH1-null / parental viability ratio | CDH1-null viability vs mock (fraction of mock) | parental viability vs mock (fraction of mock) |
| --- | --- | --- | --- |
| UQCRH | 0.98 | 0.92 | 0.94 |
| KCTD9 | 0.87 | 0.68 | 0.78 |
| OR5M8 | 0.93 | 0.92 | 0.99 |
| TRMT1 | 1.16 | 1 | 0.86 |
| ZBTB41 | 0.95 | 1.06 | 1.12 |
| DISC1 | 1.26 | 0.58 | 0.46 |
| EPG5 | 1.29 | 0.67 | 0.52 |
| EIF2S3 | 0.8 | 0.48 | 0.6 |
| AOX1 | 0.69 | 0.72 | 1.04 |

Continued.
| gene knocked down | CDH1-null / parental viability ratio | CDH1-null viability vs mock (fraction of mock) | parental viability vs mock (fraction of mock) |
| --- | --- | --- | --- |
| TSPAN32 | 1 | 0.52 | 0.52 |
| MCUR1 | 0.9 | 0.86 | 0.96 |
| ALDH18A1 | 0.93 | 0.89 | 0.96 |
| GALNT17 | 0.99 | 0.92 | 0.93 |
| WFDC10A | 1.37 | 0.78 | 0.57 |
| SPATA32 | 0.9 | 0.66 | 0.73 |
| OR7C2 | 0.7 | 0.38 | 0.54 |
| ZNF700 | 1.02 | 0.67 | 0.66 |
| FBXO34 | 0.99 | 0.98 | 0.99 |
| MAPK8IP3 | 1.08 | 0.56 | 0.52 |
| FNDC4 | 1.43 | 0.97 | 0.68 |
| SLC25A53 | 1.07 | 0.79 | 0.74 |
| EPHB6 | 1.19 | 0.74 | 0.62 |
| DCLRE1B | 0.74 | 0.64 | 0.86 |
| ANGPT2 | 0.93 | 0.78 | 0.84 |
| LTBP1 | 0.94 | 0.62 | 0.66 |
| FAM161A | 1.25 | 0.85 | 0.68 |
| RAD9A | 0.85 | 0.82 | 0.96 |
| DMAC2 | 1.03 | 1.05 | 1.02 |
| ZNF331 | 0.87 | 0.87 | 1 |
| RELN | 1.08 | 0.8 | 0.74 |
| KIR3DX1 | 0.98 | 0.54 | 0.55 |
| TAS2R14 | 1.05 | 1.03 | 0.98 |
| EAF2 | 1.11 | 1.04 | 0.94 |
| SPTBN4 | 1.16 | 1.29 | 1.11 |
| ARL4D | 1.13 | 0.7 | 0.62 |
| WNK4 | 0.85 | 0.75 | 0.88 |
| ALG6 | 1 | 0.88 | 0.88 |
| ASPG | 0.93 | 0.92 | 0.99 |
| H2AC6 | 0.78 | 0.47 | 0.6 |
